Assay results: PubChem BioAssay AID192 (DTP/NCI, 2004)
The list shows only some results of the screen, not a fair sample: it is rich in T/C values a quarter to a half above the control, in often repeated tests (any T/C) and in doses without a T/C. Further doses and runs are listed elsewhere. T/C gives the treated animals as a percentage of the vehicle group. Some entries give survivors of the animals treated and no T/C: the source holds a T/C of zero for them, seemingly a mark for toxic or unscored doses. Some doses without a T/C left all or most animals alive at the check, yet need not have been tolerated: the source hardly ever lists a survival T/C far under the control, and the zero likely stands for such cases as well. Survivors were counted at the toxicity check, usually on the fifth day, unless a day is given; later deaths do not show. Schedule codes are those of the source, taken here to give the interval after Q, in days (D) or hours (H), and the number of doses after X. For survival time, the PubChem record calls one and a half times the control and up active, and a quarter to a half above the control has no call in these data; cut-offs in other NCI protocols can differ. Some doses were run more than once; their values stand side by side, smallest first. Counts like (3×) stand for listed records that agree.

Test system: BDF1 mice, B16 melanoma ip, median survival T/C
Test: NCI In Vivo Anticancer Drug Screen. Data for tumor model B16 Melanoma (intraperitoneal) in B6D2F1 (BDF1) mice
Settings: T/C endpoint: median survival time, higher T/C = longer survival
Procedure, shortened: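 Compounds were tested in mice carrying transplantable tumors. Survival or tumor size was recorded, and each value is the treated-group measurement (T) divided by that of the vehicle-treated control group (C).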

[1] = dose: 6.25 mg/kg/injection, schedule: Q01DX009 (ip), vehicle: Klucel (hydroxypropylcellulose) (HPC)
[2] = dose: 50.0 mg/kg/injection, schedule: Q01DX009 (ip), vehicle: Klucel (hydroxypropylcellulose) (HPC)
[3] = dose: 100.0 mg/kg/injection, schedule: Q01DX009 (ip), vehicle: Klucel (hydroxypropylcellulose) (HPC)
[4] = dose: 200.0 mg/kg/injection, schedule: Q01DX009 (ip), vehicle: Klucel (hydroxypropylcellulose) (HPC)
[5] = dose: 50.0 mg/kg/injection, schedule: Q01DX009 (ip), vehicle: saline
[6] = dose: 100.0 mg/kg/injection, schedule: Q01DX009 (ip), vehicle: saline
[7] = dose: 200.0 mg/kg/injection, schedule: Q01DX009 (ip), vehicle: saline
[8] = dose: 400.0 mg/kg/injection, schedule: Q01DX009 (ip), vehicle: saline
[9] = dose: 50.0 mg/kg/injection, schedule: Q01DX009 (ip), vehicle: saline with Tween-80
[10] = dose: 100.0 mg/kg/injection, schedule: Q01DX009 (ip), vehicle: saline with Tween-80
[11] = dose: 200.0 mg/kg/injection, schedule: Q01DX009 (ip), vehicle: saline with Tween-80
[12] = dose: 400.0 mg/kg/injection, schedule: Q01DX009 (ip), vehicle: Klucel (hydroxypropylcellulose) (HPC)
[13] = dose: 12.5 mg/kg/injection, schedule: Q01DX009 (ip), vehicle: Klucel (hydroxypropylcellulose) (HPC)

`N#Cc1ccccc1N=NNc1ccccc1C#N` was tested, and the survivor count [1] was 10 of 10, the survivor count (dose: 25.0 mg/kg/injection, schedule: Q01DX009 (ip), vehicle: Klucel (hydroxypropylcellulose) (HPC)) was 3 of 10 and the survivor count [2] was 3 of 10. For the same compound, the survivor count [3] was 0 of 10 and the survivor count [4] was 0 of 10.

`CNNC(=O)NC` was tested, and the survivor count (dose: 6.25 mg/kg/injection, schedule: Q01DX009 (ip), vehicle: saline) was 10 of 10, the survivor count (dose: 25.0 mg/kg/injection, schedule: Q01DX009 (ip), vehicle: saline) was 10 of 10 and the survivor count [5] was 8 of 10. The survivor count [6] was 1 of 10, the survivor count [7] was 0 of 10 and the survivor count [8] was 0 of 10.

`CCN(CC)Cc1cc2[nH]c3c4ccc(Cl)cc4ncc3c2cc1OC` was tested, and the T/C [9] was 126 % of control and the survivor count [10] was 7 of 10.

For `Cc1ccc(NC(=O)Nc2ccc(C)c(NC(=O)Nc3ccc(C)c(Cl)c3)c2)cc1Cl`, the survivor count [9] was 10 of 10, the survivor count [10] was 10 of 10 and the survivor count [11] was 10 of 10.

With `CC(=O)CC(C)=O.CC(=O)CC(C)=O.CC(=O)CC(C)=O.[Cr]` the survivor count [3] was 10 of 10, the survivor count [4] was 10 of 10 and the survivor count [12] was 10 of 10.

`Cc1ccc(NC(=S)NC(Cc2ccccc2)c2ccccc2)cc1` (configuration not stated) was tested, and the survivor count [3] was 10 of 10, the survivor count [4] was 10 of 10 and the survivor count [12] was 10 of 10.

With `CCCCCCCCCCCCCC(=O)N(C)C` the survivor count [5] was 10 of 10, the survivor count [10] was 10 of 10 and the survivor count [11] was 10 of 10.

For `COC1=C2CC(C)CC(OC)C(O)C(C)/C=C(\C)C(OC(N)=O)C(OC)/C=C\C=C(/C)C(=O)NC(=C(/C=N/N3CCOCC3)C1=O)C2=O` (configuration not stated), the survivor count (dose: 50.0 mg/kg/injection, schedule: Q01DX005 (ip), vehicle: other) was 6 of 6.

In the case of `CCC1CN1P(=O)(N(CC)CC)N1CC1CC` (configuration not stated), the survivor count [11] is reported as 10 of 10.

In the case of `CN1CCCCC1CCN1c2ccccc2Sc2ccc(Cl)cc21` (configuration not stated), the survivor count [5] is reported as 10 of 10, the survivor count [6] is reported as 7 of 10 and the survivor count [7] is reported as 1 of 10. For the same compound, the survivor count [8] was 0 of 10.

With `COC1(OC)C2(Cl)C(Cl)=C(Cl)C1(Cl)C1C(=O)C=CC(=O)C12` (configuration not stated) the survivor count [13] was 10 of 10, the survivor count [2] was 10 of 10 and the survivor count [3] was 10 of 10. For the same compound, the survivor count [4] was 10 of 10.

`COc1ccc(C2=CC(=O)N(C(C)C)C2=O)cc1` was tested, and the T/C (dose: 160.0 mg/kg/injection, schedule: Q04DX003 (ip), vehicle: saline with Tween-80) was 139 % of control.

For `COC12C(COC(=O)NCCO)C3=C(C(=O)C(C)=C(N)C3=O)N1CC1NC12` (configuration not stated), the T/C [1] was 131 (2×) and 147 % of control, the T/C [13] was 159, 166, 167, 189 % of control and the T/C (dose: 12.5 mg/kg/injection, schedule: Q01DX009 (ip), vehicle: saline) was 145 % of control. The survivor count [2] was 10 of 10, the survivor count [5] was 10 of 10 and the survivor count [3] was 8 of 10.
